Results on one molecule are retold here after paper doi:10.1101/2025.08.01.668163.

Amino acid sequences for entries named in this document (tags omitted).
UniProt Q17RN3: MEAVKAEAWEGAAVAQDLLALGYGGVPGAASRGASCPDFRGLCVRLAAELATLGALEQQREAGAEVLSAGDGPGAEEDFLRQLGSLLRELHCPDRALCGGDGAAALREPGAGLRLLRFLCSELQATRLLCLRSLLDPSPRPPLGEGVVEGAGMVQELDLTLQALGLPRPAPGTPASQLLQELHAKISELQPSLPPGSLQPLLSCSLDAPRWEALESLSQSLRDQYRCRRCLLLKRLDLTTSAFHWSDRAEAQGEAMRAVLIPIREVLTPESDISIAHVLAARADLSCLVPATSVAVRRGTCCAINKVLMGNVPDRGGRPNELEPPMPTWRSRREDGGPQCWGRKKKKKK

These are yes or no findings as the source states them, for the method shown. In cells and extracts the contact can be indirect. A yes stands for co-enrichment or nearness to the bait. Other partners may have been found. No binding means not detected with the bait.

Assay [1] has as its target N-terminally FLAG-HA-tagged, full-length FAM98C (human) (UniProt Q17RN3). The assay can be described thus: affinity purification with mass spectrometry.
For assay [2], the target named is N-terminally FLAG-HA-tagged, full-length FAM98A (human) (UniProt Q8NCA5). Nature of the assay: affinity purification with mass spectrometry.

B1: Ashwin (protein, UniProt Q9BVC5 1-232)
chain: MAGDVGGRSCTDSELLLHPELLSQEFLLLTLEQKNIAVETDVRVNKDSLTDLYVQHAIPLPQRDLPKNRWGKMMEKKREQHEIKNETKRSSTVDGLRKRPLIVFDGSSTSTSIKVKKTENGDNDRLKPPPQASFTSNAFRKLSNSSSSVSPLILSSNLPVNNKTEHNNNDAKQNHDLTHRKSPSGPVKSPPLSPVGTTPVKLKRAAPKEEAEAMNNLKPPQAKRKIQHVTWP
Regarding B1, the binding result in assay [1] and in assay [2] was “no binding” each time.
